In data set [1] the target is PDGF-BB (Homo sapiens) (UniProt P01127). Description: competition with a labelled probe. Particulars: 3'-3' idT; no effect on receptor binding or mitogenesis; purified recombinant protein; single-stranded DNA; dose not given here.
The target in data set [2] is T1, KGF (hKGF) (Homo sapiens) (UniProt P21781).
T1 sequence (looked up, limits assumed): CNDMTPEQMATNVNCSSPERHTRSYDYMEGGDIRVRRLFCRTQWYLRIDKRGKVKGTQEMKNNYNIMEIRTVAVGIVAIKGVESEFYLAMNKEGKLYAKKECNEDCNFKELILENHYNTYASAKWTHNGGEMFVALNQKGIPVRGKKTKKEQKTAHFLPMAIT
Description: filter binding. To be noted: 2'-F pyrimidines, purified recombinant protein, protein details: Upstate Biotechnology; for binding result: variant of 14F3'T.

Amino acid sequences for entries named in this document (tags omitted). Residues count along the entry.
UniProt P01127, 82-190: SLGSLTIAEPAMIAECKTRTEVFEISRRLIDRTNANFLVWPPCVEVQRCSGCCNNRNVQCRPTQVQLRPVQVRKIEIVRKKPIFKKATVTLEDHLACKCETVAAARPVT
UniProt P01137, 279-390: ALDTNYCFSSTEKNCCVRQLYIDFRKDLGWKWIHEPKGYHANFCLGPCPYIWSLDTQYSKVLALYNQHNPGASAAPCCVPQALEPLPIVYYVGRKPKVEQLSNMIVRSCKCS

The target in data set [3] is TGFβ1 (Homo sapiens) (UniProt P01137). Description: filter binding. Particulars: 2'-NH2 pyrimidines, purified recombinant protein.

Here are results for eight sequences from US20030180744.

For some assays here: Negatives hold for the conditions tested. For some assays here: A weaker result is weaker than the reference pair of the same experiment. For some assays here: Protein sequences can lack the tags named with them. For some assays here: Construct, isoform or probe ends are uncertain for at least one entry.

Consider “CAGTCCGTGGTAGGGCAGGTTGGGGTGACTTCGTGGAAT [T39]”, for which the “functional effect of the aptamer” value in data set [1] is listed as “not active”.

For the sequence “GAGGACGAUGCGGUGGUCUCCCAAUUCUAAACUUUCUCCAUCGUAUC [T8]”, in data set [2] (high -, low +), the binding result is “binds more weakly”. As to “GGGAGGACGAUGCGGUGGUCUCCCAAUUCUAAACUCCAUCGUAUC [T6]”, in data set [2] (high ±, low +), the binding result is on record as “binds more weakly”. Turning to “GGGAGGACGAUGCGGUGGUCUCCCAAUUCUAAACUUUCUCCAUCGUA [T2]”, in data set [2] (high -, low +), the binding result is “binds more weakly”. As to “GGGAGGACGAUGCGGUGGUCUCCCAAUUCUAAACUUUCUCCAUCGUAUC [14F3'T]”, in data set [2] (high affinity component, Kd2 10.2 nM, Balb/MK Ki 34 pM, label: 32P, variant of 14F), the dissociation constant Kd (as a rule, the constant that tells how readily two partners part at equilibrium) was determined as 0.0008 nM. As to “GGGAGGCGAUGCGGUGGUCUCCCAAUUCUAUUCUCCAUCGUAUC [T16]”, in data set [2] (high -, low ±), the binding result is on record as “binds more weakly”.

For the sequence “GGGGGAGAACGCGGAUCCGAGCAAUCCCAGGCGCAUAGCUUCCGAGUAGACAGGAGGGAGGGGUGGAUGUGGCGUCUACUCGGUGUCGUGAAGCUUCGCUCUAGAUCUCCCUUUAGUGAGGGUUA [lib3-13]”, in data set [3] (mean of 0.9, 0.7, 0.9, +/-0.11, 37 C, cell IC50 25 nM, protein details: Genentech, biotinylated version used in bead assay), the Kd was 0.83 nM. On to “GGGGGAGAACGCGGAUCCUGCUAGACCGAGGAUGCAAAGGGACAUGCAUUAGGGAAACCUAUGUAUAAGAACGCGGUCGCAGAAGCUUCGCUCUAGAUCUCCCUUUAGUGAGGGUUA [lib1-20-3 (2'-NH2)]”, for which the binding result in data set [3] (did not bind with 2'-NH2 pyrimidines, protein details: Genentech or R&D Systems, variant of lib1-20-3) is “no binding”.
